In patent US20100130432A1, “Non-Natural Amino Acids and Neurotensin Analogues Thereof” (priority 2005, published 2010):

Test system: rats
Assay: Induced hypothermia (rectal temperature) after IP or oral administration
Conditions: Table 9

CC(C)C[C@H](NC(=O)[C@@H](NC(=O)[C@H](Cc1ccc(O)cc1)NC(=O)[C@@H]1CCCN1C(=O)[C@H](CCCNC(=N)N)NC(=O)[C@H](CCCCCN)N=[N+]=[N-])C(C)(C)C)C(=O)O [ABS13, N3-L-homolysine-Arg-Pro-Tyr-tertLeu-Leu-COOH]
IP Dose tmax (IP 5 mg/kg): 2.5 h
IP Dose Δ in BT (° C.) (IP 5 mg/kg): −4.26 °C
Oral Dose tmax (oral 20 mg/kg): 1.5 h
Oral Dose Δ in BT (° C.) (oral 20 mg/kg): −1.66 °C
